PubChem BioAssay (Tox21)
Values joined by “and” are separate entries in the source; they are usually repeats but may differ in a detail not shown here. Equal values may be shown once. Inconclusive means that the source gave no clear call. Such entries were picked first, then a sample of the others. Potencies beside an inconclusive call are fits to weak or partial responses and may not hold up. Some structures have more than one record in an assay (separate samples or runs), and their calls can disagree. Active and inactive are the calls of the source. Calls follow the shape of the full dose curve.

Chains of the proteins cited; added tags and fusions are not shown. Lines headed by an entry give the natural chain unless they say otherwise; changes in a name come on top.
UniProt P28223, whole entry, looked up: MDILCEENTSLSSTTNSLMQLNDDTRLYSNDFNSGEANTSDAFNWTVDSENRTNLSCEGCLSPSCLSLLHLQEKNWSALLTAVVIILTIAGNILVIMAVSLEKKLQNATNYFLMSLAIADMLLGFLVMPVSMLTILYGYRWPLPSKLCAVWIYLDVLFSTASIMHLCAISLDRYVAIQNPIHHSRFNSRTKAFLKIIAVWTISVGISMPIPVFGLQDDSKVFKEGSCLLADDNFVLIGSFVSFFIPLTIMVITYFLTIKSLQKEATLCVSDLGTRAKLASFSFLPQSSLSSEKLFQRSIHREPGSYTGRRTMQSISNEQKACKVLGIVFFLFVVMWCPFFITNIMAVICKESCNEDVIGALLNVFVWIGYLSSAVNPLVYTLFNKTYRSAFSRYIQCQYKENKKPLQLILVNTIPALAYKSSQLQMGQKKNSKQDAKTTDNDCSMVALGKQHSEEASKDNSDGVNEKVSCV
UniProt P11229: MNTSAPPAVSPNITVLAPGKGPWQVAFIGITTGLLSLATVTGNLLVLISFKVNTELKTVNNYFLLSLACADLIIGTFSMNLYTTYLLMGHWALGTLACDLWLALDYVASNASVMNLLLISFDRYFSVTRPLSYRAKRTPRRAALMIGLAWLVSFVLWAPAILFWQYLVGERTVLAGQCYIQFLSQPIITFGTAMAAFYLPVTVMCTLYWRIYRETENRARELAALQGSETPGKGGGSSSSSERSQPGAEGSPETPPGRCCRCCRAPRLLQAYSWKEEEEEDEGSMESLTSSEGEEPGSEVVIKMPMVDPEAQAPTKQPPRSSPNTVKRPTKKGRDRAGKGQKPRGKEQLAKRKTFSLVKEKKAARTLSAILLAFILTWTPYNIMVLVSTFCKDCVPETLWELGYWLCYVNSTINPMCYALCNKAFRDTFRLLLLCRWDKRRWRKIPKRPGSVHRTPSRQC

target: 5-hydroxytryptamine receptor 2A (Homo sapiens) (UniProt P28223); experiment: 5-hydroxytryptamine receptor 2A (HTR2A) small molecule antagonists, cell-based qHTS assay (AID 1963586); settings: HTR2A-CHO cells, DOI-induced calcium flux, fluorescence; series mostly up to 61.5 µM; also: nearly all actives have a fitted effect of over 45% in size
In short: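 Antagonist-mode intracellular calcium assay: DOI (4 nM) added after 5 min compound pre-incubation at room temperature to dye-loaded HTR2A-CHO cells. Fluorescence followed for 3 min, sampled every second.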
Potency is read from the fitted curve at half-maximal effect.

| SMILES | Potency |
| --- | --- |
| Cc1nnc2n1-c1sc(CCC(=O)N3CCOCC3)cc1C(c1ccccc1Cl)=NC2 | inconclusive: 0.146 µM [inhibitor, single point] |
| CSc1nc(NC(C)C)nc(NC(C)C)n1 | inconclusive: 4.21 µM [inhibitor, single point] |
| CC1(c2ccc(Oc3ccccc3)cc2)OC(=O)N(Nc2ccccc2)C1=O (stereo not given) | inconclusive: 2.67 µM [inhibitor, partial curve, poor fit] |
| O=NN(CCO)CCO | inconclusive: 16.5 µM [inhibitor, partial curve, poor fit] |
| CN1CCC(N(Cc2ccccc2)c2ccccc2)CC1 | active: 2.59 µM |
| O=C(NC(=O)c1c(F)cccc1F)Nc1ccc(Oc2ccc(C(F)(F)F)cc2Cl)cc1F | inconclusive: 0.0053 µM [inhibitor, full curve, poor fit] |
| O=C1NCN(c2ccccc2)C12CCN(CC1COc3ccccc3O1)CC2 (stereo not given) | inconclusive: 13 µM [inhibitor, partial curve, poor fit] |
| CCCCCCCCCCCCCCCCCCn1cc[n+](C)c1 | inconclusive: 4.18 µM [inhibitor, full curve, poor fit] |
| CCC(C)(NC(=O)c1cc(Cl)c(C)c(Cl)c1)C(=O)CCl (stereo not given) | inconclusive: 3.77 µM [inhibitor, single point] |
| N#Cc1cc(Br)c(O)c(Br)c1 | inconclusive: 4.2 µM [inhibitor, single point] |
| CCC(=O)C(CCN(C)C)(c1ccccc1)c1ccccc1 | active: 16.3 µM |
| Nc1ccccc1 | inconclusive: 0.0054 µM [inhibitor, full curve] |
| BrCC(Br)C1CCC(Br)C(Br)C1 (stereo not given) | inactive |
| CNC | inconclusive: 2.61 µM [inhibitor, single point] |
| CCOC(=O)C1(c2ccccc2)CCN(CCC(C#N)(c2ccccc2)c2ccccc2)CC1 | active: 0.13 µM |
| Fc1ccc(C(OCCN2CCN(CCCc3ccccc3)CC2)c2ccc(F)cc2)cc1 | active: 1.3 µM |
| CC(C)(C#N)N=NC(C)(C)C#N | inactive |
| CN1CCc2cc(Cl)c(O)cc2[C@H]2c3ccccc3CC[C@@H]21 | active: 0.0326 µM |
| C[C@@H](Oc1ccc(Cl)cc1Cl)C(=O)O | inactive |
| CCCCCCCCCCOC(=O)c1ccccc1C(=O)OCCCCCCCCCC | inactive |

target: Muscarinic acetylcholine receptor M1 (Homo sapiens) (UniProt P11229); experiment: Cholinergic receptor muscarinic 1 (CHRM1) small molecule antagonists, cell-based qHTS assay (AID 1963588); settings: CHRM1-CHO antagonist mode, calcium flux fluorescence; series mostly up to 61.5 µM; also: nearly all actives have a fitted effect of over 40% in size
In short: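 CHRM1-CHO calcium-flux assay, antagonist mode. Cells were seeded 18 h, dye-loaded 1 h at 37 C and given compound for 5 min at RT, then acetylcholine was added at 50nM. FDSS fluorescence was read 3 min; 15 concentrations, three runs.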

| SMILES | Potency |
| --- | --- |
| CC1(c2ccc(Oc3ccccc3)cc2)OC(=O)N(Nc2ccccc2)C1=O (stereo not given) | active: 5.33 µM |
| CCCCCCCCCCCCCCCCCCn1cc[n+](C)c1 | inconclusive: 0.591 µM [inhibitor, full curve] |
| N#Cc1cc(Br)c(O)c(Br)c1 | inconclusive: 0.0167 µM [inhibitor, full curve, poor fit] |
| CCC(=O)C(CCN(C)C)(c1ccccc1)c1ccccc1 | active: 11.6 µM |
| Nc1ccccc1 | inconclusive: 0.0152 µM [inhibitor, full curve, poor fit] |
| CNC | active: 3.34 µM |

tested on: not listed separately; experiment: cAMP Responsive Elements (CRE) small molecule agonists, cell-based qHTS assay (AID 1963590); settings: CRE-bla HEK293T, beta-lactamase FRET ratio, 3 h; series mostly up to 92.4 µM
In short: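 CRE-bla HEK 293T cells in DMEM with 10% dialyzed FBS, NEAA, pyruvate and 25 mM HEPES were plated 18 h at 37 C/5% CO2, then exposed to compounds in DMSO for 3 h before LiveBLAzer B/G FRET substrate addition.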

| SMILES | Potency |
| --- | --- |
| Cc1nnc2n1-c1sc(CCC(=O)N3CCOCC3)cc1C(c1ccccc1Cl)=NC2 | inconclusive: 13.3 µM [rising, partial curve] |
| CC1(c2ccc(Oc3ccccc3)cc2)OC(=O)N(Nc2ccccc2)C1=O (stereo not given) | inactive |
| O=C(NC(=O)c1c(F)cccc1F)Nc1ccc(Oc2ccc(C(F)(F)F)cc2Cl)cc1F | inconclusive: 27.3 µM [rising, full curve] |
| O=C1NCN(c2ccccc2)C12CCN(CC1COc3ccccc3O1)CC2 (stereo not given) | inconclusive: 26.6 µM [rising, partial curve, poor fit] |
| CCCCCCCCCCCCCCCCCCn1cc[n+](C)c1 | inconclusive: 19.2 µM [rising, full curve] |
| CCC(C)(NC(=O)c1cc(Cl)c(C)c(Cl)c1)C(=O)CCl (stereo not given) | inconclusive: 48.9 µM [fluorescent] |
| N#Cc1cc(Br)c(O)c(Br)c1 | inconclusive: 61.1 µM [rising, partial curve] and inconclusive: 46.8 µM [rising, partial curve] |
| CCC(=O)C(CCN(C)C)(c1ccccc1)c1ccccc1 | inconclusive: 29.8 µM [rising, partial curve] |
| CNC | inactive |
| CCOC(=O)C1(c2ccccc2)CCN(CCC(C#N)(c2ccccc2)c2ccccc2)CC1 | inactive |
| Fc1ccc(C(OCCN2CCN(CCCc3ccccc3)CC2)c2ccc(F)cc2)cc1 | inconclusive: 33.5 µM [rising, single point] |
| CC(C)(C#N)N=NC(C)(C)C#N | inactive |
| CN1CCc2cc(Cl)c(O)cc2[C@H]2c3ccccc3CC[C@@H]21 | inconclusive: 29.8 µM [rising, partial curve, poor fit] |
| C[C@@H](Oc1ccc(Cl)cc1Cl)C(=O)O | inconclusive: 24.3 µM |
